# The other results are listed elsewhere or left out. Single values are uncertain, as repeats are few or missing.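 Imaging used 1,536-well plates; nuclei positive for cleaved PARP by antibody were divided by total DNA-stained nuclei to yield the apoptosis fraction. Doses for screening kept most cells viable, and cell lines differ markedly in resting and induced cleaved-PARP levels.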
# Columns and labels:
# Experiment in all cases: cleaved PARP positive nuclei fraction relative to DMSO control; melanoma cells; higher = more apoptosis
# Settings in all cases: library dose: low library concentration; 72 h
# WM115 = test system: WM115
# WM1716 = test system: WM1716
# WM1745 = test system: WM1745
# WM3526 = test system: WM3526
# WM3619 = test system: WM3619
# WM451Lu = test system: WM451Lu
Compound,cleaved PARP positive nuclei fraction (WM115),cleaved PARP positive nuclei fraction (WM1716),cleaved PARP positive nuclei fraction (WM1745),cleaved PARP positive nuclei fraction (WM3526),cleaved PARP positive nuclei fraction (WM3619),cleaved PARP positive nuclei fraction (WM451Lu)
"Cc1cn(-c2cc(NC(=O)c3ccc(C)c(Nc4nccc(-c5cccnc5)n4)c3)cc(C(F)(F)F)c2)cn1 [nilotinib] + CC(C)(C)c1cnc(CSc2cnc(NC(=O)C3CCNCC3)s2)o1 [SNS-032] (first compound 0.2 µM, partner dose 0.01 µM)",97.2%,130%,189%,60.5%,104%,66.1%
"CC[C@]1(O)C[C@H]2CN(CCc3c([nH]c4ccccc34)[C@@](C(=O)OC)(c3cc4c(cc3OC)N(C=O)[C@H]3[C@@](O)(C(=O)OC)[C@H](OC(C)=O)[C@]5(CC)C=CCN6CC[C@]43[C@@H]65)C2)C1 [vincristine] + Nc1ccn([C@@H]2O[C@H](CO)[C@@H](O)C2(F)F)c(=O)n1 [gemcitabine] (first compound 0.0001 µM, partner dose 0.0004 µM)",1620%,142%,113%,114%,145%,301%
"Cc1cn(-c2cc(NC(=O)c3ccc(C)c(Nc4nccc(-c5cccnc5)n4)c3)cc(C(F)(F)F)c2)cn1 [nilotinib] + CCc1ccc(CCOc2ccc(CC3SC(=O)NC3=O)cc2)nc1 [pioglitazone] (first compound 0.2 µM, partner dose 2 µM)",98.1%,151%,89.5%,77%,99.9%,94.9%
"COc1cc([C@@H]2c3cc4c(cc3[C@@H](O[C@@H]3O[C@@H]5CO[C@@H](C)O[C@H]5[C@H](O)[C@H]3O)[C@H]3COC(=O)[C@H]23)OCO4)cc(OC)c1O [etoposide] + O=C(Nc1cc(C(F)(F)F)cc(C(F)(F)F)c1)c1cc(Cl)ccc1O [IMD0354] (first compound 0.02 µM, partner dose 0.016 µM)",21.4%,38%,91.6%,248%,80.5%,88.5%
"O=c1[nH]nc(Sc2ncc([N+](=O)[O-])s2)n1-c1ccc2c(c1)OCCO2 + Cn1cncc1[C@@](N)(c1ccc(Cl)cc1)c1ccc2c(c1)c(-c1cccc(Cl)c1)cc(=O)n2C [tipifarnib] (first compound 0.2 µM, partner dose 0.01 µM)",74.1%,105%,87.2%,76.2%,64.6%,31.4%
"COc1cc([C@@H]2c3cc4c(cc3[C@@H](O[C@@H]3O[C@@H]5CO[C@@H](C)O[C@H]5[C@H](O)[C@H]3O)[C@H]3COC(=O)[C@H]23)OCO4)cc(OC)c1O [etoposide] + CO[C@@H]1[C@H](N(C)C(=O)c2ccccc2)C[C@H]2O[C@]1(C)n1c3ccccc3c3c4c(c5c6ccccc6n2c5c31)C(=O)NC4 [Midostaurin] (first compound 0.02 µM, partner dose 0.08 µM)",79.2%,239%,94.8%,97.7%,104%,34.6%
"CC[C@]1(O)C[C@H]2CN(CCc3c([nH]c4ccccc34)[C@@](C(=O)OC)(c3cc4c(cc3OC)N(C=O)[C@H]3[C@@](O)(C(=O)OC)[C@H](OC(C)=O)[C@]5(CC)C=CCN6CC[C@]43[C@@H]65)C2)C1 [vincristine] + C[C@]1(O)C[C@@H](c2nc(-c3ccc4ccc(-c5ccccc5)nc4c3)c3c(N)nccn32)C1 [OSI906] (first compound 0.0001 µM, partner dose 0.4 µM)",241%,418%,123%,43.4%,92.1%,98.4%
"N#CC[C@H](C1CCCC1)n1cc(-c2ncnc3[nH]ccc23)cn1 [ruxolitinib] + COc1cc2ncnc(Nc3ccc(Oc4ccccc4)cc3)c2cc1OC [SrcI1] (first compound 1 µM, partner dose 2 µM)",96.1%,36.3%,106%,80.2%,89.8%,122%
"Cc1cn(-c2cc(NC(=O)c3ccc(C)c(Nc4nccc(-c5cccnc5)n4)c3)cc(C(F)(F)F)c2)cn1 [nilotinib] + CC1(C)NC(=O)N(c2ccc([N+](=O)[O-])c(C(F)(F)F)c2)C1=O [nilutamide] (first compound 0.2 µM, partner dose 1 µM)",60.6%,70.4%,114%,180%,71.3%,75%
"O=C(Nc1cc(C(F)(F)F)cc(C(F)(F)F)c1)c1cc(Cl)ccc1O + Cc1ccc(NC(=O)c2cccc(N(C)C)c2)cc1NC(=O)c1ccc(O)cc1 [ZM336372] (first compound 0.016 µM, partner dose 2 µM)",82.1%,81.6%,113%,160%,105%,78.2%
"Cc1cn(-c2cc(NC(=O)c3ccc(C)c(Nc4nccc(-c5cccnc5)n4)c3)cc(C(F)(F)F)c2)cn1 [nilotinib] + CCCS(=O)(=O)Nc1ccc(F)c(C(=O)c2c[nH]c3ncc(Cl)cc23)c1F [PLX4720] (first compound 0.2 µM, partner dose 0.08 µM)",72.3%,67.4%,117%,161%,111%,93.6%
"CC[C@]1(O)C[C@H]2CN(CCc3c([nH]c4ccccc34)[C@@](C(=O)OC)(c3cc4c(cc3OC)N(C=O)[C@H]3[C@@](O)(C(=O)OC)[C@H](OC(C)=O)[C@]5(CC)C=CCN6CC[C@]43[C@@H]65)C2)C1 [vincristine] + OCCn1cc(-c2cnc3nnn(Cc4ccc5ncccc5c4)c3n2)cn1 [PF04217903] (first compound 0.0001 µM, partner dose 1 µM)",223%,218%,277%,40.5%,111%,36.3%
"CCCCCCCCCCCCCCCCCCOP(=O)([O-])OC1CC[N+](C)(C)CC1 [Perifosine] + CC(C)(C)c1cnc(CSc2cnc(NC(=O)C3CCNCC3)s2)o1 [SNS-032] (first compound 0.4 µM, partner dose 0.01 µM)",170%,192%,128%,60%,113%,44.6%
"Cc1ccc(Nc2nccc(N(C)c3ccc4c(C)n(C)nc4c3)n2)cc1S(N)(=O)=O [Pazopanib] + Cn1c(=O)n(-c2ccc(C(C)(C)C#N)cc2)c2c3cc(-c4cnc5ccccc5c4)ccc3ncc21 [NVP-BEZ235] (first compound 0.4 µM, partner dose 0.004 µM)",226%,2080%,97.5%,94.4%,111%,52.6%
"CCCCCCCCCCCCCCCCCCOP(=O)([O-])OC1CC[N+](C)(C)CC1 [Perifosine] + Cc1nc(Nc2ncc(C(=O)Nc3c(C)cccc3Cl)s2)cc(N2CCN(CCO)CC2)n1 [dasatanib] (first compound 0.4 µM, partner dose 0.004 µM)",126%,36.2%,117%,52.3%,75.5%,140%
"Cc1cn(-c2cc(NC(=O)c3ccc(C)c(Nc4nccc(-c5cccnc5)n4)c3)cc(C(F)(F)F)c2)cn1 [nilotinib] + Cn1cncc1[C@@](N)(c1ccc(Cl)cc1)c1ccc2c(c1)c(-c1cccc(Cl)c1)cc(=O)n2C [tipifarnib] (first compound 0.2 µM, partner dose 0.01 µM)",50.8%,94.1%,86%,34.4%,69.6%,103%
"CC[C@]1(O)C[C@H]2CN(CCc3c([nH]c4ccccc34)[C@@](C(=O)OC)(c3cc4c(cc3OC)N(C=O)[C@H]3[C@@](O)(C(=O)OC)[C@H](OC(C)=O)[C@]5(CC)C=CCN6CC[C@]43[C@@H]65)C2)C1 [vincristine] + CC1(C)NC(=O)N(c2ccc([N+](=O)[O-])c(C(F)(F)F)c2)C1=O [nilutamide] (first compound 0.0001 µM, partner dose 1 µM)",1040%,297%,87.5%,671%,139%,192%
"N#CC[C@H](C1CCCC1)n1cc(-c2ncnc3[nH]ccc23)cn1 [ruxolitinib] + O=C(O)C(=O)Nc1sc2c(c1C(=O)O)CCNC2 [TCS401] (first compound 1 µM, partner dose 1.66667 µM)",64%,60.7%,180%,41.5%,114%,79.2%
"COc1cc([C@@H]2c3cc4c(cc3[C@@H](O[C@@H]3O[C@@H]5CO[C@@H](C)O[C@H]5[C@H](O)[C@H]3O)[C@H]3COC(=O)[C@H]23)OCO4)cc(OC)c1O [etoposide] + O=C(CCCCCCC(=O)Nc1ccccc1)NO [vorinostat] (first compound 0.02 µM, partner dose 0.08 µM)",48.8%,60%,82.1%,176%,101%,69.4%
"COc1cc([C@@H]2c3cc4c(cc3[C@@H](O[C@@H]3O[C@@H]5CO[C@@H](C)O[C@H]5[C@H](O)[C@H]3O)[C@H]3COC(=O)[C@H]23)OCO4)cc(OC)c1O [etoposide] + O=C(O)C(=O)Nc1sc2c(c1C(=O)O)CCNC2 [TCS401] (first compound 0.02 µM, partner dose 1.66667 µM)",117%,42.9%,93.9%,38.6%,92.1%,16.3%
"CCCCCCCCCCCCCCCCCCOP(=O)([O-])OC1CC[N+](C)(C)CC1 [Perifosine] + CC(C)C[C@H](NC(=O)[C@H](Cc1ccccc1)NC(=O)c1cnccn1)B(O)O [Bortezomib] (first compound 0.4 µM, partner dose 0.001 µM)",159%,94.5%,117%,112%,122%,1420%
"CC[C@]1(O)C[C@H]2CN(CCc3c([nH]c4ccccc34)[C@@](C(=O)OC)(c3cc4c(cc3OC)N(C=O)[C@H]3[C@@](O)(C(=O)OC)[C@H](OC(C)=O)[C@]5(CC)C=CCN6CC[C@]43[C@@H]65)C2)C1 [vincristine] + Oc1nc(-c2ccc(C(F)(F)F)cc2)nc2c1CSCC2 [XAV939] (first compound 0.0001 µM, partner dose 2 µM)",937%,314%,118%,115%,147%,211%

# Part of the list above, limited to cleaved PARP positive nuclei fraction (WM3619) and cleaved PARP positive nuclei fraction (WM1745).
Compound	cleaved PARP positive nuclei fraction (WM3619)	cleaved PARP positive nuclei fraction (WM1745)
CCCCCCCCCCCCCCCCCCOP(=O)([O-])OC1CC[N+](C)(C)CC1 [Perifosine] + CC(C)C[C@H](NC(=O)[C@H](Cc1ccccc1)NC(=O)c1cnccn1)B(O)O [Bortezomib] (first compound 0.4 µM, partner dose 0.001 µM)	122%	117%
CC[C@]1(O)C[C@H]2CN(CCc3c([nH]c4ccccc34)[C@@](C(=O)OC)(c3cc4c(cc3OC)N(C=O)[C@H]3[C@@](O)(C(=O)OC)[C@H](OC(C)=O)[C@]5(CC)C=CCN6CC[C@]43[C@@H]65)C2)C1 [vincristine] + Oc1nc(-c2ccc(C(F)(F)F)cc2)nc2c1CSCC2 [XAV939] (first compound 0.0001 µM, partner dose 2 µM)	147%	118%
